# Percent effect of library compounds

By UniProt entry, the sequences of proteins in these tests, tags left out.
UniProt P9WNZ1, whole entry: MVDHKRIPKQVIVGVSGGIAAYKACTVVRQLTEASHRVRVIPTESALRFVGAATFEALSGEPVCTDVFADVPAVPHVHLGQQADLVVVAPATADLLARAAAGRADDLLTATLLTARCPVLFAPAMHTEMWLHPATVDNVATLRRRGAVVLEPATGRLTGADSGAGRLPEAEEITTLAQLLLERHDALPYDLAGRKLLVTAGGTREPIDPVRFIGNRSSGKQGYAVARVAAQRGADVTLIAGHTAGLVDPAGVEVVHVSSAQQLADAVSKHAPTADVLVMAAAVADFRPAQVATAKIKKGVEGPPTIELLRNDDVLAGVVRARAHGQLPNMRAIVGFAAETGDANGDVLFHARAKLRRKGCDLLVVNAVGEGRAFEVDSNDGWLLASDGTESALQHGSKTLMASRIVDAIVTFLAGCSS

From ChEMBL document CHEMBL3988442, “University of Dundee, Small-Polar-MMV Screening Library” (2021).

A: 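Cell assay of Leishmania donovani living inside macrophages; the read-out is not stated. Concentration: 30 µM. The record gives no direction; compounds that gave an IC50 in retests scored well above the rest, so higher reads as stronger inhibition. About 69,000 compounds were tested under these conditions; 1.5% (about 1,000) showed 50% or more at least once.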
B: 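Enzyme assay of CoaBC with a phosphate dye (Biomol Green) read at 650 nm. Target: Coenzyme A biosynthesis protein CoaBC, Mycobacterium tuberculosis (UniProt P9WNZ1). Concentration: 30 µM. Direction is inferred from only a few compounds that gave an IC50; most scored high, so higher reads as stronger inhibition. Most strong results did not repeat in a second test. About 67,000 compounds were tested under these conditions; 0.06% (about 40) showed 50% or more at least once.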

The filed quantity is “Percent Effect” (%).
The record does not define 0% and 100%; most values in the screen are far below 50% and negative numbers occur (in some assays of this library far below -100).
This is an unselected part of the compounds tested.

Result for CC1CCCN(C(=O)CNC(=O)c2ccoc2)C1 (stereo not shown) was A: -17.7%; B: -10.72%. CCCNC(=O)C1CCN(Cc2csc(CC)n2)CC1 gave A: 16.47%; B: 0%. Result for CSc1ccc(CNC(c2ccccc2F)c2nccn2C)cc1.Cl (stereo not shown) was A: 18.38%. Result for CC1=N[C@@]2(CC[C@@H]3CN(Cc4ccccc4F)C[C@@H]32)C(=O)N1CC1CC1 was B: -0.207%. O=C(Cc1ccon1)N1CCN(c2ccc(F)cc2Cl)CC1 read A: 4.988%; B: -4.669%. CC(=O)NCCNC(=O)c1cccc(Cn2nc(C)cc2C)c1 gave A: 3.23%; B: -0.5102%. With CSc1ncccc1C(=O)N1C[C@H]2CC[C@@H]1CN(c1ncccn1)C2 the screen gave B: -4.091%.

[H][C@]12CC[C@]([H])(CN(Cc3cccc(-c4cccc(OC)c4)c3)C1)N(C)C2=O read A: 14.72%. With CCn1nc(C)c(CN(CCCN(C)C)Cc2ccccn2)c1C the screen gave A: -19.09%; B: 2.184%. Cc1nc(N2CCOCC2)nc2c1CCN(Cc1nccn1C)CC2 gave B: 7.054%. O=C(NCc1nn(-c2ccccc2)c2c1CCC2)C1CC1 read A: 20.8%; B: 3.069%. O=C(O)C(F)(F)F.[H][C@]12CCN(C(=O)c3ccncc3F)[C@@]1([H])CC[C@@H](COC)O2 gave A: 22.21%. For Cc1ccc(N2CCCC(NC(=O)Cc3csc(C)n3)C2=O)cc1 (stereo not shown) the result was A: 17.09%; B: -7.323%. COc1ccc(N2Cc3nc(N)ncc3C2=O)cc1Cl read A: 25.97%; B: 4.43%.

Result for CN(C)[C@@H]1CN(Cc2ccco2)C[C@@H]2CCCO[C@@H]21 was B: 0.6435%. O=C(c1cc(C2CC2)[nH]n1)N1CCN(c2nccs2)CC1 read A: -9.338%; B: 6.09%. CCCSCC(=O)NCc1cccc(CN(C)CC)c1 gave A: -5.732%; B: 8.738%. Result for Cc1ccc(C(=O)N(CC(=O)O)CC(C)C)cc1F was A: 37.79%; B: -1.094%. COCCN1CCCC2(CCN(c3cc(C)c(C#N)c(C)n3)C2)C1=O (stereo not shown) read A: -45.6%; B: 5.646%. With COc1cc(Cl)c(CN2CCC(C(N)=O)C2)cc1Cl (stereo not shown) the screen gave A: 31.88%; B: 17.19%. With O=C(O)C(F)(F)F.O=C(O)C(F)(F)F.[H][C@@]12CCCO[C@]1([H])[C@H](Oc1ncccc1F)CN2Cc1ccccn1 the screen gave A: 26.73%.

CCc1c(C(=O)N2CC[C@H](N3CCOCC3)[C@H](CCCO)C2)csc1C gave A: 32.28%; B: 14.6%. For COC(=O)NCC(=O)NC1CC(C)(C)Cc2oc(C)cc21 (stereo not shown) the result was A: -6.516%. With N#Cc1ccc(C2CC(=O)Nc3c2cnn3C2CCCC2)cc1 (stereo not shown) the screen gave A: 5.621%; B: 4.911%. For CC1CCCN(C(=O)c2ccc(-c3ccco3)o2)C1 (stereo not shown) the result was A: -4.573%; B: 1.899%. Cc1nc(CN(C)C2CCN(CCc3ccc4c(c3)CCO4)C2)no1 (stereo not shown) gave A: 14.02%; B: 0.7833%. CN1CCC/C1=N\S(=O)(=O)c1ccc(NC(=O)Cc2cccs2)cc1 gave A: 11.31%; B: -8.311%. c1cnn(CCN2CCOC(Cn3cncn3)C2)c1 (stereo not shown) gave A: 5.986%; B: -1.285%.

For CC1c2ncc(COCC3CC3)n2CCN1C(=O)c1ccnnc1 (stereo not shown) the result was A: 15.49%; B: 6.303%. With CCc1nnc(CN2CCN(c3cccc(OC)c3)C(=O)C2)o1 the screen gave A: 85%; B: -4.693%. O=C(O)C(F)(F)F.[H][C@@]12CCN(CC3CCCC3)C[C@]1(C(=O)N1CCOCC1)CCO2 gave A: -0.7999%. COc1cccc(CN2CCOC(Cn3nc(C)cc3C)C2)c1 (stereo not shown) read A: 18.12%; B: -1.863%. With O=C(CN1CCOc2ccc(Cl)cc21)NCCCn1ccnc1 the screen gave A: 3.491%; B: -0.8147%. For Cc1ccc(NC2CCCN(Cc3ccc(Cl)cc3)C2)nn1 (stereo not shown) the result was A: -9.346%; B: 3.03%. Result for CCN(C(c1ccc(OC)cc1)c1cccnc1)S(C)(=O)=O (stereo not shown) was A: 9.883%; B: 7.455%.

For COc1cc(N2CC[C@@H](OC)[C@@H]2Cc2ccccc2)ncn1 the result was A: 19.93%; B: 8.932%. Cc1noc(C(C)N2CCN(c3ncnc4sccc34)CC2)n1 (stereo not shown) read A: 61.64%; B: 4.12%. CCc1nc(C)sc1C(=O)N1CCN(c2ncccc2C)CC1 read A: 20.51%; B: -2.813%. With c1cncc(-c2ccc3c(c2)CCC32CCN(Cc3nccs3)CC2)c1 the screen gave B: 5.533%. COCC1CN(Cc2ccc(OC)cc2)Cc2nnn(CC3CC3)c21 (stereo not shown) read B: 3.752%. NC(=O)CCSCc1ccc(Br)c(F)c1 read A: 17.79%; B: 2.539%. O=C(O)C(F)(F)F.[H][C@@]12CCCO[C@]1([H])[C@H](NC(=O)c1cnoc1C)CN(Cc1ccoc1)C2 gave A: 7.429%.

Once more, the final 3:

- COCC1CN(Cc2ccc(OC)cc2)Cc2nnn(CC3CC3)c21 (stereo not shown) : B: 3.752%
- NC(=O)CCSCc1ccc(Br)c(F)c1 : A: 17.79%; B: 2.539%
- O=C(O)C(F)(F)F.[H][C@@]12CCCO[C@]1([H])[C@H](NC(=O)c1cnoc1C)CN(Cc1ccoc1)C2 : A: 7.429%